In article PMC10482677:
These are yes or no findings as the source states them, for the method shown. Binding seen in cells or lysates may run through a third protein. Some entries that bind do so weakly or less than the wild type. Sequences can lack the tags named with a protein.

T1: 3×HA-tagged DIESL (DGAT1/2-independent enzyme synthesizing storage lipids), wild type, in HAP1 cells (human) (UniProt Q96MH6)
T1 sequence (chain, N-glycan on Asn5): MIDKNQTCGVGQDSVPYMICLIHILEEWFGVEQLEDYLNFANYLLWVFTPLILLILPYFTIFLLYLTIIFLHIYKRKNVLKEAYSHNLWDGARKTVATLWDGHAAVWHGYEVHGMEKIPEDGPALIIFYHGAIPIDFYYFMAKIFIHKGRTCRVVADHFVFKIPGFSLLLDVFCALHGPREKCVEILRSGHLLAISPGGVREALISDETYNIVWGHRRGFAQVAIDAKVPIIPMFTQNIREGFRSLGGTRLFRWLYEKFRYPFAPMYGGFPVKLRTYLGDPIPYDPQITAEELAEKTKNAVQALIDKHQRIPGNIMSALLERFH

T2: 3×HA-tagged DIESL, wild type, in HeLa cells (human) (UniProt Q96MH6)
T2 sequence: T1 sequence (chain, N-glycan on Asn5)

B1: Transmembrane thioredoxin 1 (TMX1), endogenous in HAP1 cells (protein, UniProt Q9H3N1 27-280)
chain: RRSNVRVITDENWRELLEGDWMIEFYAPWCPACQNLQPEWESFAEWGEDLEVNIAKVDVTEQPGLSGRFIITALPTIYHCKDGEFRRYQGPRTKKDFINFISDKEWKSIEPVSSWFGPGSVLMSSMSALFQLSMWIRTCHNYFIEDLGLPVWGSYTVFALATLFSGLLLGLCMIFVADCLCPSKRRRPQPYPYPSKKLLSESAQPLKKVEEEQEADEEDVSEEEAESKEGTNKDFPQNAIRQRSLGPSLATDKS
B2: Transmembrane thioredoxin 1 (TMX1), endogenous in HeLa cells (protein, UniProt Q9H3N1 27-280)
chain: B1 chain

Legend:
[1] = target: T1, 3×HA-tagged DIESL (DGAT1/2-independent enzyme synthesizing storage lipids), wild type, in HAP1 cells (human); test: co-IP; lysate of ∆DIESL HAP1 cells reconstituted with 3×HA-DIESL on anti-HA magnetic beads overnight at 4 °C; IP buffer 25 mM HEPES pH 7.0, 150 mM NaCl, 1% Tween-20; immunoblot for TMX1
[2] = target: T1, 3×HA-tagged DIESL (DGAT1/2-independent enzyme synthesizing storage lipids), wild type, in HAP1 cells (human); test: cross-linking; intact cells (HAP1 ∆DIESL or ∆TMX1∆DIESL reconstituted with 3×HA-DIESL; HeLa expressing 3×HA-DIESL) in 1% paraformaldehyde, 20 min, room temperature, quenched with 0.2 M glycine; RIPA lysis, SDS–PAGE, immunoblot for HA and TMX1
[3] = target: T2, 3×HA-tagged DIESL, wild type, in HeLa cells (human); test: as above

Row | Binder | binding [1] | binding [2] | binding [3]
1 | B1 | binds | binds | 
2 | B2 |  |  | binds
